Some of the results follow.
What was measured:
Experiment in all cases: log2 fold change, soluble protein after heating vs DMSO (PISA); higher = thermal stabilisation; K562 cells, 10 uM, 30 min; active = over 0.2 and 3.5 SD of the protein, either way, in both replicates (recomputed)
[1] = compound: Cc1ccc(NC(=O)c2ccc(CN3CC[C@H](N(C)C)C3)c(C(F)(F)F)c2)cc1Nc1nccc(-c2cncnc2)n1 [bafetinib]
Procedure, shortened: (§1)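 K562 cells (2×10^6 cells/mL) were treated with 10 μM compound for 30 min, and aliquots were heated for 3 min over 48°C-58°C. Pooled aliquots were extracted in PBS with 0.5% NP-40 at 4°C, and the supernatant after 21,000xg for 90 min was measured by TMTpro 16plex LC-MS/MS with channel sums equalised. Reported thermal stability, relative to control samples and from duplicates, is a log2 fold change.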

Amino acid sequences for entries named in this document (tags omitted). A change or cut given only in a name is not applied to a line headed by its entry.
UniProt Q9Y3B2, whole entry, looked up: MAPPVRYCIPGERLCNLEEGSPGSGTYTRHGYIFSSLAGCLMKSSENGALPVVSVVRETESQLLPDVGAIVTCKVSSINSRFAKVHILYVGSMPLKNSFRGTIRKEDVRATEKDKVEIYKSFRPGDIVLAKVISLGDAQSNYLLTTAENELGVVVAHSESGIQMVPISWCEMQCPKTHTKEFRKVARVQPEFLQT
UniProt Q9Y2J2, whole entry, looked up: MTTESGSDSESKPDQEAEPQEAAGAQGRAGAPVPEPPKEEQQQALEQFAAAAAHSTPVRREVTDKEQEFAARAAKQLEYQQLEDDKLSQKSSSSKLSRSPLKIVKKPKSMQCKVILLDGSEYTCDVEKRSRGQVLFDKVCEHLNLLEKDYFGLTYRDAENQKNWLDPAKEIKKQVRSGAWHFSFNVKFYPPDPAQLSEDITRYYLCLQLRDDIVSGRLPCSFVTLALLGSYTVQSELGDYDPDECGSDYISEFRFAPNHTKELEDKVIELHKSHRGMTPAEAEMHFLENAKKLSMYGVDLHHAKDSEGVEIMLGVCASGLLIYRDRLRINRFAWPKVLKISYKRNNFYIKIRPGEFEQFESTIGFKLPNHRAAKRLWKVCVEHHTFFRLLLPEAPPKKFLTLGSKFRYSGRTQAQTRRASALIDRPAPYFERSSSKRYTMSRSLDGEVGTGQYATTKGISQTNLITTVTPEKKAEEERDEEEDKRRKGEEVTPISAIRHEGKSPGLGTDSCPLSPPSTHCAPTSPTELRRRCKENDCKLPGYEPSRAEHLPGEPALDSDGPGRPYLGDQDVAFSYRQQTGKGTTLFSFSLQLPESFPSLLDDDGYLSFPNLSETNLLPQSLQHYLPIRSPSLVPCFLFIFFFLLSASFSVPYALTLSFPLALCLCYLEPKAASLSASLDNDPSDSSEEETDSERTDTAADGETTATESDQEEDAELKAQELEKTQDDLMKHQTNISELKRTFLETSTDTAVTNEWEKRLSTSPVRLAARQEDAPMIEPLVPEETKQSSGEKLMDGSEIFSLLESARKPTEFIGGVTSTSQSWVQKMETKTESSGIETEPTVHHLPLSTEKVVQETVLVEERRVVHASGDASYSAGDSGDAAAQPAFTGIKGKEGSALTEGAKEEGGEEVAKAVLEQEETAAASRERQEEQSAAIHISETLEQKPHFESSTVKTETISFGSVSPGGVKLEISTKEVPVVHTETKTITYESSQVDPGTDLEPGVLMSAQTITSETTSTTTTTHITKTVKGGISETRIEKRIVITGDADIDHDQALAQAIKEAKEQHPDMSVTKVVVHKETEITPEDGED
UniProt Q6P587: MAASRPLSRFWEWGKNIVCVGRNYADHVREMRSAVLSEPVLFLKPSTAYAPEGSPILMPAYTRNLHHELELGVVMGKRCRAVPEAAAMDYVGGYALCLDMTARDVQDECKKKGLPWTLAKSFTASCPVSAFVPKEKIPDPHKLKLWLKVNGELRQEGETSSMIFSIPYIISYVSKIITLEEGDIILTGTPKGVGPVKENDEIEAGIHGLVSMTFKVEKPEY
UniProt Q9NV70: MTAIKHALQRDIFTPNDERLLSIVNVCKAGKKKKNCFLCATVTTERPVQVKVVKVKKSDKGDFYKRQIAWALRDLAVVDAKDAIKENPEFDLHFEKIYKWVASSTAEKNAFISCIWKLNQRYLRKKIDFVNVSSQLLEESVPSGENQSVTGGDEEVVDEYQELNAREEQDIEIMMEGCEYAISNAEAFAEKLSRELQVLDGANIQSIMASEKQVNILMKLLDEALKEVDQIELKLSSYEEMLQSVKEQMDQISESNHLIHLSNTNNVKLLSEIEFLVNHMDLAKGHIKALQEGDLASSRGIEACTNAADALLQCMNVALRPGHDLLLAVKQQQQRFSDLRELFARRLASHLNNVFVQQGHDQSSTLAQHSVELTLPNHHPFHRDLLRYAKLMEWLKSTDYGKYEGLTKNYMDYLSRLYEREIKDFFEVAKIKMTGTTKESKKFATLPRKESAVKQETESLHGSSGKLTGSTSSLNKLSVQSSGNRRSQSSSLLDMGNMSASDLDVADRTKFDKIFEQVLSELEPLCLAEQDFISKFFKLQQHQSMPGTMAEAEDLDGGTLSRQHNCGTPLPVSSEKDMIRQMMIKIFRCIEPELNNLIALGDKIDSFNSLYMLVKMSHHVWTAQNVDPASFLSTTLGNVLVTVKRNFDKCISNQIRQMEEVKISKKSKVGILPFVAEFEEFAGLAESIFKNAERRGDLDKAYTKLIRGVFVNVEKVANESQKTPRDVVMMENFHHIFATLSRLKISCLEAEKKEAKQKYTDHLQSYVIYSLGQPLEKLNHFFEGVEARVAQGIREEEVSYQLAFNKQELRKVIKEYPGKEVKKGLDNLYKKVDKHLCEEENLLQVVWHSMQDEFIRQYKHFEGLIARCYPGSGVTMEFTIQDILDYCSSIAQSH
UniProt Q0VG06: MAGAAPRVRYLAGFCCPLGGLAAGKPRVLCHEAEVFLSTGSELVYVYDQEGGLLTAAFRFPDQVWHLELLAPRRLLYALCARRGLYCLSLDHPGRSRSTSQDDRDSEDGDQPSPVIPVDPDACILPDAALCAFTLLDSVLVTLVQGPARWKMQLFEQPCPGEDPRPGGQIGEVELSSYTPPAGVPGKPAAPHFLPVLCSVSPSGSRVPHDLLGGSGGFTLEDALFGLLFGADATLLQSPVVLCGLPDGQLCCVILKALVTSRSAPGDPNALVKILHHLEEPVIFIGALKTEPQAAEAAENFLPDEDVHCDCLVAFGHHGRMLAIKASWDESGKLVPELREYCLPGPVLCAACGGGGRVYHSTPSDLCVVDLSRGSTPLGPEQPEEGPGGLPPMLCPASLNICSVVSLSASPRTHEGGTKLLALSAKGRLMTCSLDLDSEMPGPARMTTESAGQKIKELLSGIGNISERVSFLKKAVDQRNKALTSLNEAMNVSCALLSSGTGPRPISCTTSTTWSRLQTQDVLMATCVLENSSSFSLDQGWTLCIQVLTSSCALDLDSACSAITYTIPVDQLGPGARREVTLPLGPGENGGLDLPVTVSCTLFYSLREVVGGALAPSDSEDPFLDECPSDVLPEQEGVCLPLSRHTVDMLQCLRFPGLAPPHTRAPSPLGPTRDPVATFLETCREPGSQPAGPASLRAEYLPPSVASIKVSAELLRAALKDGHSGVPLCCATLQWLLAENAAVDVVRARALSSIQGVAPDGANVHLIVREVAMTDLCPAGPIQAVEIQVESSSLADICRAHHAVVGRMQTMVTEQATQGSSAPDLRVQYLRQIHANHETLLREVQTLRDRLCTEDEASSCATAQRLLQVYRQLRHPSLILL
UniProt P12259: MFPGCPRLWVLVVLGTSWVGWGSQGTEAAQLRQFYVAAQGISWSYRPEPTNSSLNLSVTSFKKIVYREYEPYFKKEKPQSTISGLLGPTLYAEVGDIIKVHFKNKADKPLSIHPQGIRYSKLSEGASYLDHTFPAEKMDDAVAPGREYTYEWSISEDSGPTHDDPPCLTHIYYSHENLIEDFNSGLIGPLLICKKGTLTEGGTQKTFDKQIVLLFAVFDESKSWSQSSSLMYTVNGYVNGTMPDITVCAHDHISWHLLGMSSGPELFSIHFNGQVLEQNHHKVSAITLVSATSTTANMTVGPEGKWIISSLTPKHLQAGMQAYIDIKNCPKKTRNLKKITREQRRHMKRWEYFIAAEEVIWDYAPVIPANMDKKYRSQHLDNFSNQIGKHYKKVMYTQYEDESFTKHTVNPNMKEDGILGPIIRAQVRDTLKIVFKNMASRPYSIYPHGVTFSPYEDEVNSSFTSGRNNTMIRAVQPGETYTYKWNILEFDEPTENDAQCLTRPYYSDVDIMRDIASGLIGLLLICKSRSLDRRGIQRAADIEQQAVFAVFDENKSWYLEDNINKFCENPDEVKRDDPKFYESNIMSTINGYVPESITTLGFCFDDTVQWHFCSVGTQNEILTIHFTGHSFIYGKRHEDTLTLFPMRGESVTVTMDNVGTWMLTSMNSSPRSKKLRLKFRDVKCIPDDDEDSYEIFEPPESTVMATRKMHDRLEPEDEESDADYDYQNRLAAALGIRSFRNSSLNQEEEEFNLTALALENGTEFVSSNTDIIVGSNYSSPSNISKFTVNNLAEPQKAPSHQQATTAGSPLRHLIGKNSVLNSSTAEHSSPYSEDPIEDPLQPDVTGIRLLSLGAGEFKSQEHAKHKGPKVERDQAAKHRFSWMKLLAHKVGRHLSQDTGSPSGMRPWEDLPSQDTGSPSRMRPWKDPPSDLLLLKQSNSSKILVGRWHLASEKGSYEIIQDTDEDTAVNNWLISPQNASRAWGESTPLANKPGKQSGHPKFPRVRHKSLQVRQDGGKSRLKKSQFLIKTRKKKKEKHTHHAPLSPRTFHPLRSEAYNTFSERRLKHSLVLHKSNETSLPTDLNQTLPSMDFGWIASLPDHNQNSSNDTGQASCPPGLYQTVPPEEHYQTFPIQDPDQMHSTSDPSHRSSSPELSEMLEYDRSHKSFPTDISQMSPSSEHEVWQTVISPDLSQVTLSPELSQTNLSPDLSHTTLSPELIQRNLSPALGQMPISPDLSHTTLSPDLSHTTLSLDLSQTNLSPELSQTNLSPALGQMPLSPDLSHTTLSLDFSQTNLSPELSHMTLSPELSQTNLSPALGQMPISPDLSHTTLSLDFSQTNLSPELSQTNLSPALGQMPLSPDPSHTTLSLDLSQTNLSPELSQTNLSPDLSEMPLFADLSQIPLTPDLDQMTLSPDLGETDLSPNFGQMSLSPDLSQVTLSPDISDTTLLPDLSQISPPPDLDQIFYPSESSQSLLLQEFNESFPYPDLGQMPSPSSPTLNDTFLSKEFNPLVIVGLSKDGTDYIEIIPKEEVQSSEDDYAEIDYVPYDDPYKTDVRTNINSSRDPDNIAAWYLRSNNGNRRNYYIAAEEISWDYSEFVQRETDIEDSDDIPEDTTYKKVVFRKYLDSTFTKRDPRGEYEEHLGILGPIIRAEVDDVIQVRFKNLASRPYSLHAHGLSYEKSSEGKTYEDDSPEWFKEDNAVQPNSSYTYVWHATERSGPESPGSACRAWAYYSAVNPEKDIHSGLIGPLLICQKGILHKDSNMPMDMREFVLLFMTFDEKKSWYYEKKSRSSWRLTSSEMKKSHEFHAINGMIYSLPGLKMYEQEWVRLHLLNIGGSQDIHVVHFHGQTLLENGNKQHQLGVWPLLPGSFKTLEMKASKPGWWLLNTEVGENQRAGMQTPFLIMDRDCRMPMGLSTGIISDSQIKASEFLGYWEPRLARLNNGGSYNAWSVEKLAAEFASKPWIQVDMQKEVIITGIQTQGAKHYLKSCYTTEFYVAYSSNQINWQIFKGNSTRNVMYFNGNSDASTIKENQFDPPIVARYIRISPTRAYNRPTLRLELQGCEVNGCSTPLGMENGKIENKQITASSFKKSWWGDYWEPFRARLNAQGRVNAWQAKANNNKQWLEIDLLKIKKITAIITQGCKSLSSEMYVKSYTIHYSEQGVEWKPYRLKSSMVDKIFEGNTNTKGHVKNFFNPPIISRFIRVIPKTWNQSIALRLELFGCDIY
UniProt Q06265, whole entry, looked up: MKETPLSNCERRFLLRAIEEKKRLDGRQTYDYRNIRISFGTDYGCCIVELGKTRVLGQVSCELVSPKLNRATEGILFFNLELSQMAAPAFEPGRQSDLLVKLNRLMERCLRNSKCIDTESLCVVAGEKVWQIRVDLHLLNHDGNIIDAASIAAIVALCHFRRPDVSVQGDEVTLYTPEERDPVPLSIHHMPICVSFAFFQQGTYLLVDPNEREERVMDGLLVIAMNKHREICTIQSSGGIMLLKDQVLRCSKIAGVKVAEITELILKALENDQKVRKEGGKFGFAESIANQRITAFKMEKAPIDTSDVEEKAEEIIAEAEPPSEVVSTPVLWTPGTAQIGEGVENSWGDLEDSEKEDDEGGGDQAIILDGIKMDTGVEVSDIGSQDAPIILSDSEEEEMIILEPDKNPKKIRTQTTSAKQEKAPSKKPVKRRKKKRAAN
UniProt P15311, whole entry, looked up: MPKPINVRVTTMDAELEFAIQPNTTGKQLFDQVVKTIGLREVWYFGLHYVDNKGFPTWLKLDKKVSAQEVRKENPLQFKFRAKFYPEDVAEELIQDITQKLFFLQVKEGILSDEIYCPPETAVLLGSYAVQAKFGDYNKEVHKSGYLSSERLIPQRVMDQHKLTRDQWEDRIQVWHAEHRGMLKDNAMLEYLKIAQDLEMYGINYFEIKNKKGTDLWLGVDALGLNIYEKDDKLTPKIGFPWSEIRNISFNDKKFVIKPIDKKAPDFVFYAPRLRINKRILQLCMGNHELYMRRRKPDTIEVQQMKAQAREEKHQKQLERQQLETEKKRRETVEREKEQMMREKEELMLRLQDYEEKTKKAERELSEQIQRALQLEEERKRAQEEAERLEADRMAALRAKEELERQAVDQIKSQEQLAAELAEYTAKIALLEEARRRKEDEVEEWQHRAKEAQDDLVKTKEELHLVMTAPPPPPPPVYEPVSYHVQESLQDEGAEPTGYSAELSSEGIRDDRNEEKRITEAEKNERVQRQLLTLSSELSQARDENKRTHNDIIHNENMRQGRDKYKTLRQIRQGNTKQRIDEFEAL

[2] = compound: Cc1cccc(CC(=O)N2CCc3c2ccc(-c2cn(C)c4ncnc(N)c24)c3F)n1
Procedure, shortened: as §1

[3] = compound: Cc1cn(-c2cc(NC(=O)c3ccc(C)c(Nc4nccc(-c5cccnc5)n4)c3)cc(C(F)(F)F)c2)cn1 [nilotinib]
Procedure, shortened: as §1

[4] = compound: Cc1nc(Nc2n[nH]c3c2CN(C(=O)N[C@H](CN(C)C)c2ccccc2)C3(C)C)c2sccc2n1
Procedure, shortened: as §1

[5] = compound: Cc1nc(Nc2ncc(C(=O)Nc3c(C)cccc3Cl)s2)cc(N2CCN(CCO)CC2)n1 [dasatinib]
Procedure, shortened: as §1

[6] = compound: Cc1ncc(-c2ccnc(Nc3ccc(S(C)(=O)=O)cc3)n2)n1C(C)C
Procedure, shortened: as §1

[7] = compound: Cn1cc(-c2ccc3c(c2)CCN3C(=O)Cc2cccc(C(F)(F)F)c2)c2c(N)ncnc21
Procedure, shortened: as §1

[8] = compound: Cn1cc(-c2ccc3nnc(C(F)(F)c4ccc5ncccc5c4)n3n2)cn1
Procedure, shortened: as §1

[9] = compound: Cn1cncc1[C@@](N)(c1ccc(Cl)cc1)c1ccc2c(c1)c(-c1cccc(Cl)c1)cc(=O)n2C [tipifarnib]
Procedure, shortened: as §1

[10] = compound: FC(F)(F)c1ccc(/C=C/c2nc(COc3ccc(CCCCn4ccnn4)cc3)co2)cc1 [mubritinib]
Procedure, shortened: as §1

[11] = compound: NC(=O)Nc1cc(-c2cccc(F)c2)sc1C(=O)N[C@H]1CCCNC1
Procedure, shortened: as §1

[12] = compound: NC(=O)c1cnc(N[C@@H]2CCCC[C@@H]2N)nc1Nc1cccc(-n2nccn2)c1
Procedure, shortened: as §1

[13] = compound: NC1(c2ccc(-c3nc4ccn5c(=O)[nH]nc5c4cc3-c3ccccc3)cc2)CCC1
Procedure, shortened: as §1

[14] = compound: NCC(=O)Nc1ccc(-n2nc(C(F)(F)F)cc2-c2ccc3c(ccc4ccccc43)c2)cc1
Procedure, shortened: as §1

[15] = compound: Nc1ccccc1NC(=O)c1ccc(CNC(=O)OCc2cccnc2)cc1 [entinostat]
Procedure, shortened: as §1

[16] = compound: O=C(CCCCCCC(=O)Nc1ccccc1)NO [vorinostat]
Procedure, shortened: as §1

[17] = compound: O=C(CCCCCCNC(=O)c1cnc(N(c2ccccc2)c2ccccc2Cl)nc1)NO [citarinostat]
Procedure, shortened: as §1

[18] = compound: O=C(O)c1ccc2c(c1)nc(Nc1cccc(Cl)c1)c1ccncc12 [silmitasertib]
Procedure, shortened: as §1

[19] = compound: O=C1NC(=O)C(c2cnc3ccccn23)=C1c1cn2c3c(cc(F)cc13)CN(C(=O)N1CCCCC1)CC2
Procedure, shortened: as §1

[20] = compound: c1cc(OCCN2CCCCC2)cc(-c2n[nH]c3ccc(-c4nnc[nH]4)cc23)c1
Procedure, shortened: as §1

Measured: log2 fold change

FAM120A isoform 6 (UniProt Q9NZB2)
inactive: [1] 0.055 | [2] -0.021 | [3] 0.023 | [4] 0.002 | [5] 0.118 | [6] 0.101 | [7] -0.208 | [8] -0.083 | [9] 0.137 | [10] -0.054 | [11] 0.009 | [12] 0.102 | [13] 0.203 | [14] 0.119 | [15] -0.037 | [16] -0.078 | [17] -0.094 | [18] 0.148 | [19] 0.24 | [20] -0.122

ESYT2 isoform 2 (UniProt A0FGR8)
inactive: [1] -0.059 | [2] -0.023 | [3] 0.023 | [4] -0.073 | [5] -0.022 | [6] -0.004 | [7] 0.023 | [8] 0.04 | [9] 0.048 | [10] 0.018 | [11] -0.106 | [12] -0.069 | [13] -0.126 | [14] -0.083 | [15] -0.002 | [16] 0.021 | [17] 0.021 | [18] -0.004 | [19] -0.015 | [20] 0.027

EXOSC1 (UniProt Q9Y3B2)
inactive: [1] 0.15 | [2] -0.017 | [3] -0.05 | [4] -0.008 | [5] -0.018 | [6] 0.012 | [7] -0.084 | [8] -0.086 | [9] 0.007 | [10] -0.056 | [11] 0.074 | [12] 0.034 | [13] 0.058 | [14] 0.026 | [15] -0.035 | [16] 0 | [17] 0.007 | [18] 0.033 | [19] 0.068 | [20] -0.047

FADS3 (UniProt Q9Y5Q0)
inactive: [1] -0.11 | [2] 0.044 | [3] 0.108 | [4] -0.012 | [5] -0.109 | [6] -0.013 | [7] 0.034 | [8] -0.037 | [9] -0.033 | [10] 0.059 | [11] -0.086 | [12] -0.096 | [13] -0.074 | [14] 0.079 | [15] -0.06 | [16] 0.024 | [17] 0.022 | [18] -0.008 | [19] 0.259 | [20] -0.034

EPB41L3 (UniProt Q9Y2J2)
inactive: [1] -0.02 | [2] 0.063 | [3] 0.056 | [4] -0.053 | [5] 0.055 | [6] -0.061 | [7] 0.008 | [8] -0.01 | [9] -0.019 | [10] 0.03 | [11] -0.19 | [12] 0.014 | [13] 0.025 | [14] -0.002 | [15] -0.046 | [16] 0.048 | [17] 0.011 | [18] -0.04 | [19] -0.096 | [20] -0.015

FAHD1 (UniProt Q6P587)
inactive: [1] -0.04 | [2] 0.029 | [3] 0.004 | [4] -0.006 | [5] 0.033 | [6] -0.014 | [7] 0.031 | [8] -0.006 | [9] 0.032 | [10] 0.025 | [11] -0.008 | [12] -0.006 | [13] 0 | [14] 0.026 | [15] -0.043 | [16] -0.044 | [17] 0.031 | [18] 0.028 | [19] -0.076 | [20] 0.008

EPN2 (UniProt O95208)
inactive: [1] -0.074 | [2] -0.093 | [3] 0.012 | [4] -0.03 | [5] -0.034 | [6] -0.012 | [7] -0.033 | [8] 0.051 | [9] 0.004 | [10] 0.03 | [11] -0.061 | [12] 0.022 | [13] -0.026 | [14] 0.031 | [15] -0.038 | [16] -0.04 | [17] -0.005 | [18] 0.092 | [19] -0.021 | [20] -0.05

EXOC1 (UniProt Q9NV70)
inactive: [1] 0.061 | [2] 0.025 | [3] -0.034 | [4] -0.069 | [5] -0.126 | [6] -0.051 | [7] -0.008 | [8] 0.026 | [9] -0.098 | [10] 0.032 | [11] 0.043 | [12] -0.162 | [13] -0.228 | [14] -0.065 | [15] 0.062 | [16] 0.082 | [17] 0.014 | [18] 0.127 | [19] 0.069 | [20] -0.165

ERAP1 isoform 2 (UniProt Q9NZ08)
inactive: [1] 0.024 | [2] 0.058 | [3] 0.008 | [4] 0.049 | [5] 0.008 | [6] -0.032 | [7] -0.081 | [8] -0.021 | [9] 0.036 | [10] -0.072 | [11] -0.003 | [12] 0.006 | [13] -0.088 | [14] 0.035 | [15] -0.013 | [16] -0.01 | [17] 0.024 | [18] 0.008 | [19] 0.033 | [20] -0.09

EPS15 (UniProt P42566)
inactive: [1] -0.02 | [2] 0.034 | [3] -0.13 | [4] 0.119 | [5] -0.023 | [6] 0.065 | [7] -0.06 | [8] 0.047 | [9] -0.052 | [10] 0.051 | [11] -0.015 | [12] -0.074 | [13] -0.154 | [14] -0.09 | [15] 0.067 | [16] 0.019 | [17] 0.042 | [18] 0.082 | [19] -0.018 | [20] -0.007

FAAP100 (UniProt Q0VG06)
inactive: [1] 0.201 | [2] 0.043 | [3] -0.032 | [4] -0.005 | [5] 0.035 | [6] -0.039 | [7] -0.005 | [8] 0.101 | [9] 0.1 | [10] 0 | [11] 0.009 | [12] 0.039 | [13] -0.076 | [14] -0.031 | [15] -0.05 | [16] 0.048 | [17] -0.012 | [18] -0.051 | [19] 0.197 | [20] -0.053

ERP44 (UniProt Q9BS26)
inactive: [1] -0.03 | [2] 0.004 | [3] -0.031 | [4] 0.013 | [5] 0.066 | [6] -0.036 | [7] -0.018 | [8] 0.019 | [9] 0.071 | [10] -0.025 | [11] -0.015 | [12] -0.026 | [13] -0.015 | [14] -0.034 | [15] -0.017 | [16] -0.014 | [17] -0.002 | [18] 0.046 | [19] -0.024 | [20] -0.009

ETF1 (UniProt P62495)
inactive: [1] -0.057 | [2] 0.027 | [3] -0.074 | [4] 0.005 | [5] -0.057 | [6] -0.012 | [7] 0.05 | [8] 0.011 | [9] -0.022 | [10] 0.007 | [11] -0.009 | [12] -0.077 | [13] -0.11 | [14] -0.093 | [15] 0.022 | [16] 0.023 | [17] 0.033 | [18] 0.002 | [19] -0.068 | [20] -0.075

F5 (UniProt P12259)
inactive: [1] -0.076 | [2] -0.02 | [3] 0.021 | [4] 0.019 | [5] 0.05 | [6] 0.023 | [7] 0.072 | [8] 0.111 | [9] 0.153 | [10] -0.089 | [11] -0.095 | [12] -0.08 | [13] 0.048 | [14] -0.024 | [15] -0.045 | [16] -0.016 | [17] -0.019 | [18] 0.127 | [19] 0.084 | [20] 0.002

Quoted at random: two entries already listed, in no set order.
ESYT2 isoform 2 (UniProt A0FGR8)
inactive: [1] -0.059 | [2] -0.023 | [3] 0.023 | [4] -0.073 | [5] -0.022 | [6] -0.004 | [7] 0.023 | [8] 0.04 | [9] 0.048 | [10] 0.018 | [11] -0.106 | [12] -0.069 | [13] -0.126 | [14] -0.083 | [15] -0.002 | [16] 0.021 | [17] 0.021 | [18] -0.004 | [19] -0.015 | [20] 0.027

FAAP100 (UniProt Q0VG06)
inactive: [1] 0.201 | [2] 0.043 | [3] -0.032 | [4] -0.005 | [5] 0.035 | [6] -0.039 | [7] -0.005 | [8] 0.101 | [9] 0.1 | [10] 0 | [11] 0.009 | [12] 0.039 | [13] -0.076 | [14] -0.031 | [15] -0.05 | [16] 0.048 | [17] -0.012 | [18] -0.051 | [19] 0.197 | [20] -0.053

(further entries)

EXOSC9 isoform 2 (UniProt Q06265)
inactive: [1] -0.021 | [2] -0.04 | [3] 0.01 | [4] 0.012 | [5] 0.088 | [6] -0.02 | [7] -0.011 | [8] 0.035 | [9] 0.006 | [10] -0.013 | [11] -0.089 | [12] 0.025 | [13] 0.011 | [14] 0.02 | [15] -0.074 | [16] -0.039 | [17] -0.002 | [18] 0.125 | [19] 0.044 | [20] -0.052

EZR (UniProt P15311)
inactive: [1] 0.008 | [2] 0.027 | [3] 0.011 | [4] 0.028 | [5] -0.013 | [6] -0.007 | [7] 0.055 | [8] -0.025 | [9] -0.02 | [10] 0.038 | [11] -0.018 | [12] -0.001 | [13] -0.006 | [14] -0.006 | [15] -0.009 | [16] -0.002 | [17] 0.017 | [18] -0.012 | [19] -0.055 | [20] 0.035

From the supplement of paper PMC10849652
